Earlier results, collected in patent US7022850B2, “Bicyclicpyrimidones and their use to treat diseases” (Bristol-Myers Squibb Co., priority 2003, dated 2006).
At least one compound was matched to its structure with a doubt left.

Test system: Eg5
Details: in vitro assay

## CCOC(=O)C1=C(C)NC(=S)NC1c1cccc(O)c1 (stereo not shown) [monastrol]
  Eg5 motor-driven motility of microtubules: inhibit the Eg5 motor-driven motility of microtubules
